Results are given in words; binding and its absence hold for the method and conditions named. For some assays here: In cells and extracts the contact can be indirect. Some binding calls cover weakened binding; strength is not graded here.
Tests used:
Bcl-W "bait" protein = molecular target: T1, Bcl-W "bait" protein (UniProt Q92843); assay: yeast two-hybrid (HIS3 selection)
T1 sequence (looked up): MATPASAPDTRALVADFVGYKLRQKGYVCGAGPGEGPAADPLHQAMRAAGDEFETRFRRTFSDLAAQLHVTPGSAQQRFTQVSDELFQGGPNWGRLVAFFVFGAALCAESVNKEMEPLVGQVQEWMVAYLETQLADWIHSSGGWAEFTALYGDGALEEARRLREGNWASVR

The chains behind the UniProt entries cited, without tags or fusion partners. Where a name states a change or a piece, a line headed by the entry shows the natural chain unless it says otherwise.
UniProt P0A7C2: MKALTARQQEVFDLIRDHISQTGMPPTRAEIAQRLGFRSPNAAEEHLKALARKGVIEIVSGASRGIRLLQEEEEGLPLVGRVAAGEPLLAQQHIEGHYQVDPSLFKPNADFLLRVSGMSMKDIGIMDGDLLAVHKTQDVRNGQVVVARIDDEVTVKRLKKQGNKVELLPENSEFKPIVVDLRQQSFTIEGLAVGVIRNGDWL

[1] = molecular target: C-terminal truncate of Bcl-2 (1-211) fused to the LexA DNA binding domain (UniProt P0A7C2); assay: yeast two-hybrid (HIS3 selection)
[2] = molecular target: C-terminal truncate of Bcl-XL (1-209) fused to the LexA DNA binding domain (UniProt P0A7C2); assay: yeast two-hybrid (HIS3 selection)
[3] = molecular target: fusion protein glutathione-S-transferase-Bcl-W [GST: P08515]; assay: fluorescence polarisation
[4] = molecular target: fusion protein glutathione-S-transferase-Bcl-XL [GST: P08515]; assay: fluorescence polarisation
[5] = molecular target: fusion protein glutathione-S-transferase-Bcl-2 [GST: P08515]; assay: GST pull-down competition against 35S-Bid, peptide 5 to 20 uM
[6] = molecular target: fusion protein glutathione-S-transferase-Bcl-W [GST: P08515]; assay: as above
[7] = molecular target: fusion protein glutathione-S-transferase-Bcl-XL [GST: P08515]; assay: as above
[8] = molecular target: fusion protein glutathione-S-transferase-Bcl-2 [GST: P08515]; assay: co-immunoprecipitation and GST pull-down (summary sentence; constructs of the co-immunoprecipitation not described)
[9] = molecular target: fusion protein glutathione-S-transferase-Bcl-W [GST: P08515]; assay: as above
[10] = molecular target: fusion protein glutathione-S-transferase-Bcl-XL [GST: P08515]; assay: as above

Measured: binding

B1: short peptide of 22 amino acids (SEQ. ID. NO.1) as two-hybrid "prey" (peptide, not shown: large carriers)
chain: DTRRSMVFARHLREVGDEFRSR
binds: Bcl-W "bait" protein | [1] | [2]

B2: peptide obtained in Example 1 labelled with fluorescein at the N-terminal end (peptide)
peptide: DTRRSMVFARHLREVGDEFRSR
modifications: fluorescein at the N-terminal end
binds: [3] | [4]

B3: peptide described in SEQ. ID. NO.1 (22 amino acid fragment of HC21ORF80) (peptide)
peptide: DTRRSMVFARHLREVGDEFRSR
binds: [5] | [6] | [7] | [8] | [9] | [10]

From patent US20060183688A1 (LES LABORATORIES SERVIER, published 2006)
